Experimental data: PubChem BioAssay AID504744 (Drosophila RNAi Screening Center, 2011)
The deposit covers about 23,000 reagents; this is a random part of those that have a named target and a result. Over the whole deposit, 98 (0.43%) were called active. 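Only hit calls are given; the phospho-dAkt signals, z-scores and hit direction were not deposited.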 A plus sign joins genes that one reagent is predicted to hit.

Purpose: 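Find genes whose loss alters insulin-driven dAkt phosphorylation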 (primary screen)
System: Drosophila Kc167 cells
Reagent: long dsRNA against Drosophila genes, 250 ng dsRNA per well of a 384-well plate
Duration: 3 days of knock-down, then overnight serum-free starvation before stimulation
Treatment: bovine insulin at 387 nM for 10 minutes after 12 h without serum
Detection: 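In-cell antibody fluorescence for phospho-dAkt in each well over DNA-dye signal, with log2 residuals expressed as z-scores adjusted for cell count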
Rule for the call: 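Under insulin, a gene counts as a hit if the average z-score of two replicates lies above 2.5 or below -2.5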

The first 3 entries, ahead of the listing:
no.	predicted target	PubChem SID	activity call
1	Pus1	SID104195340	inactive
2	p-cup	SID104199305	inactive
3	CG13229	SID104186141	inactive

The listing, from the start:
no.	predicted target	PubChem SID	activity call
1	Pus1	SID104195340	inactive
2	p-cup	SID104199305	inactive
3	CG13229	SID104186141	inactive
4	galla-2	SID104190728	inactive
5	galla-2	SID104201563	inactive
6	Ktl	SID104194062	active
7	CstF64	SID104196408	inactive
8	tko	SID104198636	inactive
9	Ufd1	SID104190399	inactive
10	Usp2	SID104200382	inactive
11	Usp2	SID104200424	inactive
12	Usp2	SID104200425	inactive
13	Npc2c	SID104195315	inactive
14	MED14	SID104188027	inactive
15	meru	SID104189192	inactive
16	meru	SID104189691	inactive
17	meru	SID104190007	inactive
18	CG14455	SID104191504	inactive
19	Caper	SID104181929	inactive
20	Ir48c	SID104185946	inactive
21	CG9394	SID104184342	inactive
22	CG8064	SID104196165	inactive
23	5-HT7	SID104192427	inactive
24	CG15471	SID104197846	inactive
25	mms4	SID104186041	inactive
26	CG31156	SID104195545	inactive
27	CG31156	SID104195547	inactive
28	CG10477	SID104189524	inactive
29	dsx-c73A	SID104189227	inactive
30	dsx-c73A	SID104189706	inactive
31	dsx-c73A	SID104190221	inactive
32	CG30447	SID104185612	inactive
33	Osi6	SID104191920	inactive
34	Pfdn1	SID104182117	inactive
35	CG10597	SID104199149	inactive
36	PIG-F	SID104190861	inactive
37	emp	SID104183811	inactive
38	emp	SID104184475	inactive
39	Dll	SID104184402	inactive
40	RhoGAP5A	SID104198086	inactive
41	tomboy20	SID104194705	inactive
42	pcs	SID104186834	inactive
43	CG14414	SID104199391	inactive
44	RabGGTb	SID104180596	inactive
45	SecCl	SID104190679	inactive
46	CG7322	SID104199828	inactive
47	wac	SID104188141	inactive
48	CG30022	SID104201882	inactive
49	CG34353	SID104194285	inactive
50	CG34353	SID104194309	inactive
51	CG34353	SID104194355	inactive
52	CG34353	SID104195629	inactive
53	CG34353	SID104201900	inactive
54	dlp	SID104190073	inactive
55	dlp	SID104190264	inactive
56	Irk3	SID104181839	inactive
57	Cog4	SID104182849	inactive
58	Alh	SID104192239	inactive
59	Alh	SID104192279	inactive
60	Alh	SID104192280	inactive
61	CG32243	SID104187897	inactive
62	CG13077	SID104181973	inactive
63	Pis	SID104199970	inactive
64	CG16762	SID104188285	inactive
65	CG5937	SID104198184	inactive
66	CG13392	SID104182054	inactive
67	Ufsp1	SID104184750	inactive
68	Gclm	SID104195469	inactive
69	Acp1	SID104181646	inactive
70	inaF-B + inaF-D + inaF-C + 1 more	SID104200134	inactive
71	Hsp70Bc	SID104195845	inactive
72	eca	SID104201806	inactive
73	rogdi	SID104190698	inactive
74	CG13455	SID104189794	inactive
75	CG30178	SID104201535	inactive
76	CG17996 + Tsen2	SID104182442	inactive
77	CG14450	SID104191499	inactive
78	Lcp3	SID104187249	inactive
79	CG8043	SID104196160	inactive
80	CG16812	SID104182311	inactive
81	Cyp6a14 (retired record)	SID104187168	inactive
82	CG14669	SID104191857	inactive
83	CG14669	SID104191859	inactive
84	CG14669	SID104191860	inactive
85	CG14669	SID104192047	inactive
86	mRpL51	SID104181992	inactive
87	IntS6	SID104198073	inactive
88	Dfd	SID104192385	inactive
89	loh	SID104180914	inactive
90	loh	SID104182735	inactive
91	Ldsdh1	SID104198011	inactive
92	CG9164	SID104198879	inactive
93	CG9164	SID104199954	inactive
94	CG3815	SID104198116	inactive
95	CG8665	SID104182890	inactive
96	Capa	SID104194850	inactive
97	shakB	SID104200284	inactive
98	shakB	SID104200377	inactive
99	shakB	SID104202176	inactive
100	CG10077	SID104189483	inactive
101	Rab3GAP1	SID104180083	inactive
102	Rab3GAP1	SID104180495	inactive
103	CG13996	SID104182120	inactive
104	Mpi	SID104196209	inactive
105	CG31804	SID104202106	inactive
106	twf	SID104195258	inactive
107	bab2	SID104187942	inactive
108	bab2	SID104188172	inactive
